The supplement of paper PMC8288183
± gives the standard deviation of the averaged measurements. Some of the results follow. Many values rest on one well or one pass, so single values are uncertain.

Molecular target: T1, NSUN6 (UniProt Q8TEA1)
T1 sequence: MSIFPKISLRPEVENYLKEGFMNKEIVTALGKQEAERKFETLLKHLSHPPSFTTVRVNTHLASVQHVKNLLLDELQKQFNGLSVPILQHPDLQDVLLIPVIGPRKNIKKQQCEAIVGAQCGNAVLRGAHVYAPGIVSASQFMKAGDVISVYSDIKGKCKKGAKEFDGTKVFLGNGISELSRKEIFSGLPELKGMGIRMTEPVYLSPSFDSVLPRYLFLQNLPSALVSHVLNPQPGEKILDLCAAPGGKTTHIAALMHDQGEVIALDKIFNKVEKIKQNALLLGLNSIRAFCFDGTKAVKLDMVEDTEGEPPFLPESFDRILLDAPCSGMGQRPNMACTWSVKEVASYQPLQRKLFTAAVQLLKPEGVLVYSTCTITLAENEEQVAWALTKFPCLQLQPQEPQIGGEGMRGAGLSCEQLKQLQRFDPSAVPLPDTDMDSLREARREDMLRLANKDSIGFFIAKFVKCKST
Test: m5C methylation level at the target C (C/(C+U) bisulfite reads) (fraction); higher = more methylation by NSUN6; extreme values may be limits of the assay
Conditions: HEK293T (wild-type)
Method: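 High-throughput mutagenesis reporter. About 140 bp oligo-pool variants of four natural Type II m5C substrates (substrate #1 chr15:91425541; #2 RAB15 3'UTR chr14:65413377; #3 SULT2A1 5'UTR chr19:48389569; #4 NAAA CDS chr4:76857361) were cloned as 3'UTR elements of psiCHECK-2 luciferase and transfected into wild-type HEK293T cells. Total RNA was taken 48 h later and m5C level was measured by targeted bisulfite sequencing as C/(C+U) reads at the m5C site (one library).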

[1] = parent substrate: substrate #1 (main figure)

Row | Sequence | m5C methylation level at the target C [1] | m5C methylation level at the target C (parent substrate: substrate #2) | m5C methylation level at the target C (parent substrate: substrate #3) | m5C methylation level at the target C (parent substrate: substrate #4)
1 | GCAGUU | 0.00904 | 0.00162 | 0.00222 | 0.000637
2 | GCUUUG | 0.00546 | 0.000811 | 0.00445 | 0
3 | GCUAUA | 0.00231 | 0.00118 | 0.00202 | 0.0012
4 | UCAACU | 0.000383 | 0 | 0.00224 | 0
5 | CCCUGC | 0.0014 | 0 | 0.00109 | 0.000903
6 | ACAAUG | 0 | 0 | 0.00105 | 0.000982
7 | UCAUCU | 0.0033 | 0.000989 | 0.0085 | 0.00787
8 | UCAGAC | 0.00341 | 0 | 0.00437 | 0.00361
9 | ACAUCG | 0 | 0 | 0 | 0.000708
10 | CCCGCU | 0.000567 | 0 | 0.00116 | 0
11 | ACGCUU | 0.00923 | 0.000999 | 0 | 0.00125
12 | GCCUCC | 0.00211 | 0.00587 | 0.00172 | 0
13 | ACGGCU | 0.00174 | 0 | 0.000459 | 0.000921
14 | UCCACU | 0.00152 | 0 | 0.00261 | 0.000496
15 | UCGUUA | 0.000513 | 0.00134 | 0.00369 | 0.00149
16 | UCAGCC | 0.000629 | 0.00111 | 0.000762 | 0.00839
17 | ACGGCG | 0.000564 | 0.0011 | 0.00175 | 0
18 | GCAGGG | 0 | 0 | 0.00217 | 0
19 | ACAGAU | 0.00251 | 0 | 0.00129 | 0.00124
20 | UCCUCU | 0.00104 | 0 | 0 | 0
21 | UCUUUA | 0.00285 | 0.00288 | 0 | 0.00102
22 | GCCUUU | 0.00197 | 0 | 0.0101 | 0.000557
23 | GCGGCU | 0 | 0.00171 | 0 | 0.00109
24 | ACGGAU | 0.00238 | 0.00121 | 0.00127 | 0

Full records as entered above. Order of values: m5C methylation level at the target C [1] | m5C methylation level at the target C (parent substrate: substrate #2) | m5C methylation level at the target C (parent substrate: substrate #3) | m5C methylation level at the target C (parent substrate: substrate #4)
ACGGAU as listed: 0.00238 | 0.00121 | 0.00127 | 0
ACAUCG as listed: 0 | 0 | 0 | 0.000708

Additional records follow.

Row | Sequence | m5C methylation level at the target C [1] | m5C methylation level at the target C (parent substrate: substrate #2) | m5C methylation level at the target C (parent substrate: substrate #3) | m5C methylation level at the target C (parent substrate: substrate #4)
25 | GCACGA | 0.000862 | 0 | 0.00133 | 0
26 | CCCGAC | 0.000598 | 0.00371 | 0.000678 | 0
27 | ACAUUU | 0.00764 | 0 | 0 | 0.00716
28 | ACCGUA | 0.00178 | 0 | 0.00138 | 0.00176
29 | UCUUAA | 0.000547 | 0 | 0.00492 | 0.00134
30 | ACUGAC | 0.00131 | 0.00112 | 0 | 0.00374
31 | GCCCCA | 0.000512 | 0.0126 | 0.00796 | 0.00282
32 | ACCGUC | 0 | 0.00551 | 0.0053 | 0
33 | UCCAGA | 0.00241 | 0.00186 | 0.00103 | 0.00207
34 | GCGAUA | 0.00372 | 0 | 0.000404 | 0.001
35 | UCCCGU | 0.00354 | 0 | 0.000497 | 0.000975
36 | UCUGUU | 0.00161 | 0.00103 | 0 | 0.000433
37 | CCUCCA | 0.477 | 0.227 | 0.476 ± 0.0065 | 0.561
38 | UCCACG | 0.000858 | 0.00131 | 0.000469 | 0
39 | CCGUCA | 0 | 0.00146 | 0.00203 | 0.00117
40 | CCACGU | 0.00483 | 0.00161 | 0.000603 | 0
41 | ACGGGG | 0.0106 | 0 | 0.00229 | 0.00357
42 | UCUCGA | 0.00631 | 0 | 0.0506 | 0.00995
43 | GCUAGG | 0.000876 | 0.00253 | 0.00223 | 0
44 | UCAAGU | 0 | 0 | 0 | 0.00122
45 | ACACCG | 0.000503 | 0 | 0 | 0.00124
46 | UCUCAA | 0.0108 | 0.00575 | 0.0188 | 0.0058
47 | GCUGGU | 0.00115 | 0 | 0.000767 | 0
48 | CCCUAG | 0.00123 | 0 | 0 | 0.000531

Row | Sequence | m5C methylation level at the target C [1] | m5C methylation level at the target C (parent substrate: substrate #2) | m5C methylation level at the target C (parent substrate: substrate #3) | m5C methylation level at the target C (parent substrate: substrate #4)
49 | CCUAAU | 0 | 0.00353 | 0.00118 | 0
50 | GCGCUA | 0.00754 | 0 | 0.00145 | 0.0024
51 | UCCCGC | 0 | 0 | 0.000674 | 0.0013
52 | ACGUGG | 0 | 0.000977 | 0.00222 | 0.000595
53 | UCAGCA | 0 | 0 | 0.00458 | 0.00178
54 | ACUACU | 0.000935 | 0.0023 | 0.00922 | 0
55 | UCUAAA | 0.006 | 0.000976 | 0 | 0.00109
56 | CCAGAC | 0.00181 | 0.00149 | 0 | 0.00106
57 | GCACAA | 0.00791 | 0 | 0.00106 | 0.00101
58 | CCACCG | 0 | 0.00471 | 0 | 0
59 | CCUCGA | 0.00303 | 0.0108 | 0.0157 | 0.0162
60 | CCCCGG | 0.00235 | 0.000705 | 0.00122 | 0
61 | UCGCAG | 0.00994 | 0.000858 | 0.000824 | 0.00246
62 | UCAGAU | 0 | 0 | 0.00124 | 0.000834
63 | ACCAUA | 0.0065 | 0.00144 | 0 | 0.000821
64 | UCGAAA | 0.00125 | 0.00462 | 0.00151 | 0
65 | GCCCUU | 0.00395 | 0.000949 | 0 | 0.00142
66 | CCAAGG | 0.0021 | 0.000778 | 0.000578 | 0.00367
67 | ACAAUC | 0 | 0 | 0 | 0
68 | UCUAGU | 0.00116 | 0.00139 | 0 | 0.00285
69 | ACUCCU | 0 | 0 | 0 | 0
70 | GCUUUA | 0.000609 | 0.00719 | 0.00252 | 0.00373
71 | GCGAUC | 0.00474 | 0.00245 | 0.000951 | 0.00292
72 | ACCCAU | 0 | 0.00129 | 0.00116 | 0.000665

Row | Sequence | m5C methylation level at the target C [1] | m5C methylation level at the target C (parent substrate: substrate #2) | m5C methylation level at the target C (parent substrate: substrate #3) | m5C methylation level at the target C (parent substrate: substrate #4)
73 | UCGACC | 0.000952 | 0 | 0.000531 | 0.00204
74 | CCUCCU | 0 | 0.002 | 0.000655 | 0
75 | UCUUGC | 0 | 0.00633 | 0 | 0.00433
76 | CCAUCG | 0.000963 | 0 | 0 | 0.000509
77 | UCUAAG | 0 | 0 | 0.000695 | 0
78 | GCUAAG | 0.000511 | 0 | 0.000409 | 0.00205
79 | ACUGUC | 0 | 0.00295 | 0 | 0
80 | GCCACU | 0.000762 | 0.014 | 0.000864 | 0.000695
81 | GCGCGU | 0 | 0 | 0.00402 | 0.00291
82 | UCGUUG | 0.000926 | 0 | 0.000923 | 0
83 | UCGUGU | 0.000779 | 0 | 0.00992 | 0.00202
84 | UCGGGA | 0.00403 | 0.00124 | 0.00592 | 0.00069
85 | ACUACC | 0.00619 | 0.00316 | 0.00124 | 0.00084
86 | CCCUUA | 0 | 0 | 0.00364 | 0.000794
87 | UCUUUC | 0 | 0.00515 | 0 | 0.00172
88 | GCGUAA | 0.00357 | 0 | 0.00184 | 0.00153
89 | CCUGUA | 0.00238 | 0.00417 | 0.00044 | 0.00105
90 | ACCCCG | 0 | 0.00652 | 0.000961 | 0
91 | ACCCAG | 0 | 0.00822 | 0 | 0
92 | UCAUGA | 0.00193 | 0.00288 | 0 | 0
93 | GCAGGC | 0.000855 | 0 | 0.00271 | 0.00156
